Reference: paper PMC6502810
No constants are given. Whether binding was seen depends on the method and setting. In cells and extracts the contact can be indirect. A yes stands for co-enrichment or nearness to the bait. Other partners may have been found.

What was measured:
[1] = biological target: N-terminally FLAG tagged CBFB (human) (UniProt Q13951); assay: affinity purification with mass spectrometry; FLAG pulldown from stable CBFB KO MCF10A cells (about 100 million); NET buffer (50 mM Tris pH 7.5, 250 mM NaCl, 5 mM EDTA, 0.1% NP40, 10 µg/ml RNase A); anti-FLAG-M2 affinity gel overnight at 4 °C; eluted with 3x FLAG peptide; enriched silver-stained bands (vs. empty vector) cut out for mass spectrometry
[2] = biological target: C-terminally FLAG tagged CBFB (human) (UniProt Q13951); assay: as above

- binding [1]: binds
- binding [2]: binds
Substance: hnRNPK (from UniProt P61978 1-463)
